Results published in patent US20090209606A1 (priority 2004, published 2009).
Some of these results come from one statement about several compounds together.

Tested on: SU-DHL-1 and HL-60 cells
Assay type: cell-based, human

| Structure (SMILES) | IC50 after 30 minutes exposure compared to continuous (72 hour) exposure |
| --- | --- |
| O=C(O)CCCc1ccc(N(CCCl)CCCl)cc1 [Chlorambucil, chlorambucil] | 10- to 20 fold |
| N[C@@H](Cc1ccc(N(CCCl)CCCl)cc1)C(=O)O [melphalan] | 10- to 20 fold |
